Results deposited as PubChem BioAssay AID743458 (Peter MacCallum Cancer Centre, 2014)

- Purpose: 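Find knock-downs that make vorinostat-resistant colon cancer cells sensitive again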 (follow-up of hits)
- Cells: human HCT116-VR colon cancer cells made resistant to vorinostat
- Knock-down reagent: single siRNA or pool against human genes, 25 nM per single siRNA
- Timing: about 72 h after transfection, including 24 h of drug
- Conditions: vorinostat, 2.5 µM final, for 24 h
- Measured: 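Cell viability by fluorescence and apoptosis by caspase 3/7 luminescence under vorinostat, background-corrected, averaged across two plate copies and given as fold change versus mock transfection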
- Scale: viability relative to mock: higher = more living cells than mock; caspase activity relative to mock: higher = more apoptosis than mock
- Active means: 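An siRNA counts as active if classed as reduced viability or as caspase activation, otherwise inactive; a hit class needed wells that remained healthy in the absence of drug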
Here is a random part of about 1,800 reagents tested. In the full data, 732 (41%) got an active call. 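Calls are per siRNA reagent; a gene was deemed confirmed only if most of its four siRNAs scored.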 Unmarked entries are inactive. Reagents against one gene are numbered here. No sequences are given here.

Depletion of EIF1AX #1 resulted in: viability relative to mock 0.6; caspase activity relative to mock 1; viability hit class no change; caspase hit class no change.
Depletion of EIF1AX #2 came out at: viability relative to mock 0.44 (active); caspase activity relative to mock 1.46; viability hit class reduced viability; caspase hit class no change.
EIF1AX #3 showed viability relative to mock 0.5 (active); caspase activity relative to mock 1.31; viability hit class reduced viability; caspase hit class no change.
With knock-down of EIF1AX #4 the results were viability relative to mock 0.51 (active); caspase activity relative to mock 1.12; viability hit class reduced viability; caspase hit class no change.
Depletion of FXYD7 #1 resulted in: viability relative to mock 1.04; caspase activity relative to mock 1.1; viability hit class no change; caspase hit class no change.
Silencing of FXYD7 #2 gave: viability relative to mock 0.68; caspase activity relative to mock 2.4; viability hit class no change; caspase hit class no change.
With knock-down of FXYD7 #3 the results were viability relative to mock 0.92; caspase activity relative to mock 1.22; viability hit class no change; caspase hit class no change.
MRPL19 #1 showed viability relative to mock 0.9 (active); caspase activity relative to mock 3.12; viability hit class no change; caspase hit class caspase activation.
Against MRPL19 #2, the values are viability relative to mock 0.88 (active); caspase activity relative to mock 2.9; viability hit class no change; caspase hit class caspase activation.
MRPL19 #3 showed viability relative to mock 0.9 (active); caspase activity relative to mock 3.46; viability hit class no change; caspase hit class caspase activation.
For MRPL19 #4, the entry reads viability relative to mock 0.81; caspase activity relative to mock 2.27; viability hit class no change; caspase hit class no change.
THSD7B #1 gave viability relative to mock 1.07; caspase activity relative to mock 1.86; viability hit class no change; caspase hit class no change.
THSD7B #2 gave viability relative to mock 0.94; caspase activity relative to mock 1.24; viability hit class no change; caspase hit class no change.
Against THSD7B #3, the values are viability relative to mock 0.82 (active); caspase activity relative to mock 3.01; viability hit class no change; caspase hit class caspase activation.
With knock-down of THSD7B #4 the results were viability relative to mock 0.76 (active); caspase activity relative to mock 3.34; viability hit class no change; caspase hit class caspase activation.
With knock-down of LAMTOR2 #1, the screen gave viability relative to mock 0.97; caspase activity relative to mock 1.62; viability hit class no change; caspase hit class no change.
With knock-down of LAMTOR2 #2, the screen gave viability relative to mock 0.44 (active); caspase activity relative to mock 0.68; viability hit class reduced viability; caspase hit class no change.
LAMTOR2 #3 gave viability relative to mock 0.76; caspase activity relative to mock 0.6; viability hit class no change; caspase hit class no change.
LAMTOR2 #4 scored viability relative to mock 0.15 (active); caspase activity relative to mock 2.77; viability hit class reduced viability; caspase hit class caspase activation.
PLEKHB1 #1 scored viability relative to mock 0.85; caspase activity relative to mock 1.04; viability hit class no change; caspase hit class no change.
For PLEKHB1 #2, the values are viability relative to mock 0.24; caspase activity relative to mock 2.36; viability hit class no change; caspase hit class no change.
For PLEKHB1 #3 the deposit lists viability relative to mock 0.5 (active); caspase activity relative to mock 2.06; viability hit class reduced viability; caspase hit class no change.
After knock-down of PLEKHB1 #4, the screen gave viability relative to mock 0.68; caspase activity relative to mock 1.02; viability hit class no change; caspase hit class no change.
Silencing of NUDT15 #1 came out at: viability relative to mock 0.93; caspase activity relative to mock 1.32; viability hit class no change; caspase hit class no change.
Silencing of NUDT15 #2 resulted in: viability relative to mock 0.68; caspase activity relative to mock 1.84; viability hit class no change; caspase hit class no change.
NUDT15 #3 showed viability relative to mock 0.92; caspase activity relative to mock 1.09; viability hit class no change; caspase hit class no change.
Silencing of NUDT15 #4 gave: viability relative to mock 0.44 (active); caspase activity relative to mock 3.09; viability hit class reduced viability; caspase hit class caspase activation.

A stretch of the results above:
EIF1AX #1 — viability relative to mock = 0.6; caspase activity relative to mock = 1; viability hit class = no change; caspase hit class = no change
EIF1AX #2 — viability relative to mock = 0.44 (active); caspase activity relative to mock = 1.46; viability hit class = reduced viability; caspase hit class = no change
EIF1AX #3 — viability relative to mock = 0.5 (active); caspase activity relative to mock = 1.31; viability hit class = reduced viability; caspase hit class = no change
